{"source": "patent US6441027B1", "about": "“Method of regulating the female reproductive system through angiogenesis inhibitors” (Children's Medical Center Corporation, priority 1996, dated 2002)", "test": "Serum progesterone enzyme immunoassay on E9", "type": "in vivo, mouse"}
{"smiles": "CO[C@@H]1[C@H](OC(=O)NC(=O)CCl)CC[C@]2(CO2)[C@H]1[C@@]1(C)O[C@@H]1CC=C(C)C", "note": "[AGM-1470, O-chloroacetylcarbamoyl fumagillol]", "values": [{"measurement": "serum progesterone level on E9", "setting": "30 mg/kg on E1, n=3, NS", "result": "112%±23 % of control"}, {"measurement": "serum progesterone level on E9", "setting": "30 mg/kg on E7, n=3, NS", "result": "161%±24 % of control"}]}
